Reference: article PMC8502343
No constants are given. Whether binding was seen depends on the method and setting. In cells and extracts the contact can be indirect. Some binding calls cover weakened binding; strength is not graded here.

Protein sequences, listed by entry. Tags and fused reporters are not part of them.
UniProt P15311: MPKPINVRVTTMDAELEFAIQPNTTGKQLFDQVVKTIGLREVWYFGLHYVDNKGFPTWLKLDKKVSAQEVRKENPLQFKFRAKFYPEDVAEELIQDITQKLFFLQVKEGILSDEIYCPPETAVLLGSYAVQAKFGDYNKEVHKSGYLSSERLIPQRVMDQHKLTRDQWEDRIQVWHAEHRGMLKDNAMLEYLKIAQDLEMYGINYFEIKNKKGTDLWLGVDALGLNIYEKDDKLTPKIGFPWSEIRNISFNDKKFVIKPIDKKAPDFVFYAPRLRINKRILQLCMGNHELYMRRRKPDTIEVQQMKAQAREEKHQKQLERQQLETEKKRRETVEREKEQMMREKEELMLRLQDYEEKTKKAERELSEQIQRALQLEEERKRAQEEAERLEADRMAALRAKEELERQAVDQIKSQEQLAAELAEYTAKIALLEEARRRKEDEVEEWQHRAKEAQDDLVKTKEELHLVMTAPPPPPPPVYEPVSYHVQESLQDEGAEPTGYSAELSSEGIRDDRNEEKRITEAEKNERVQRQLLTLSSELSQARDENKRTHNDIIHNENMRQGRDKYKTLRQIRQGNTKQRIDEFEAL
UniProt Q05397: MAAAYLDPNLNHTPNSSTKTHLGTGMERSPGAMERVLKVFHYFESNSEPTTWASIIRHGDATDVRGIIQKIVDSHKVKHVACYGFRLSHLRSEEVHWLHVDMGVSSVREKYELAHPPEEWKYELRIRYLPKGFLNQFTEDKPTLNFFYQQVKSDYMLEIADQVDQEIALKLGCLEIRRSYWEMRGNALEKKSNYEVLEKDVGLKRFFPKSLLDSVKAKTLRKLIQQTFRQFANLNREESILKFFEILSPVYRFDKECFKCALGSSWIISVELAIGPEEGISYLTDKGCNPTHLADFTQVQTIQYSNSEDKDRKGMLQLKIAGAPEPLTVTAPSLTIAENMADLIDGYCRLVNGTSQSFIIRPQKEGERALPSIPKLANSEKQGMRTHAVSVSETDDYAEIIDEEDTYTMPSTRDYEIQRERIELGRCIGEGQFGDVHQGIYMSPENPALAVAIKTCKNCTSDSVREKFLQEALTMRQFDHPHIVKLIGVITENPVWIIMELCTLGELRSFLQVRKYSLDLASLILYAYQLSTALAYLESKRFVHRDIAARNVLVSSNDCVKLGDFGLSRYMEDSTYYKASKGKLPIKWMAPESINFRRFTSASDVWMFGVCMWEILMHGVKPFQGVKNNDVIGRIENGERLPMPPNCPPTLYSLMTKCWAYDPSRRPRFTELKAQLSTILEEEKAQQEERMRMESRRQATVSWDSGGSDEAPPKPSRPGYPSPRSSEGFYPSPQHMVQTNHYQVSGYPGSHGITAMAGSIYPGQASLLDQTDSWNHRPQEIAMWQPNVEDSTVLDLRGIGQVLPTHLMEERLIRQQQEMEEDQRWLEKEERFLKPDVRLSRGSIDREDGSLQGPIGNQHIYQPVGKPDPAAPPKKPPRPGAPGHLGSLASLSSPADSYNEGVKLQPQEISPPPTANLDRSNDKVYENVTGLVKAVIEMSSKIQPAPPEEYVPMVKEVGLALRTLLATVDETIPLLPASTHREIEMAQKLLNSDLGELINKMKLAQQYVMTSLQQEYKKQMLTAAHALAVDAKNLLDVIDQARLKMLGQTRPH

Target: Ezrin (EZR) (human (endogenous in PC cells)) (UniProt P15311)
Experiment: co-IP; PC cells lysed in RIPA; supernatant incubated with primary antibody (or IgG) and Protein G agarose; Western blot; which protein was precipitated not given

Substance: FAK (from UniProt Q05397 1-1052)
- binding: binds
